According to the supplement of paper PMC5949888:
Most values lie at the floor of the assay. Slopes are relative: functional sequences can read slightly below zero.

tested on: Saccharomyces cerevisiae PS128 hsf1 delta, HSF1(1-493) fusion; assay: growth estimate (transactivation domain function in HSF1 fusion, heat-shock survival) (a.u. (slope of normalised read count over time)); higher = stronger growth at 37°C, i.e. more transactivation activity; details: library: random library

Substance	growth estimate
VNQDGFRRAHIFRGRPNLPM	< -0.25
VNRRGGLERIHFPSVRHSPS	< -0.25
VNRSGRNVEAHESIKLDLNF	< -0.25
VNRV	< -0.25
VNSANRGMLVRTES	< -0.25
VNSQR	< -0.25
VNTSSRALNIAIFRSDHGGP	< -0.25
VNTWCTSF	< -0.25
VNTYLVTGSRNGPCPGADTP	< -0.25
VNVVSDDTVLGDVQDGRNGH	< -0.25
VNW	< -0.25
VPAKPLQKAGYPPCESTTTP	< -0.25
VPALLVVCMPSQWRQPSWPA	< -0.25
VPAVASNIRGVMSKAGPIMN	< -0.25
VPCRIQNLAITKNHCRASTM	< -0.25
VPDKHLACNLWILQKQRLCV	< -0.25
VPKPR	< -0.25
VPLHIRCYYALRFYLTIKCS	< -0.25
VPLKVERGTQRFST	< -0.25
VPLVCLRWGKVGL	< -0.25
VPMGGV	< -0.25
VPPGTDPSVS	< -0.25
VPQPL	< -0.25
VPQYSQYPERR	< -0.25
VPRDAEEFSDTAILG	-0.243

Retrieved one by one from the entries so far, 6 records:
Substance	growth estimate
VPDKHLACNLWILQKQRLCV	< -0.25
VNRV	< -0.25
VPQYSQYPERR	< -0.25
VNTSSRALNIAIFRSDHGGP	< -0.25
VNRRGGLERIHFPSVRHSPS	< -0.25
VPPGTDPSVS	< -0.25

Additional entries follow:

Substance	growth estimate
VPREE	< -0.25
VPRGLSGGRRSAEGPEVEIE	< -0.25
VPSAADRCR	< -0.25
VPSASLGQRHAGSRVDIWVS	< -0.25
VPSDHA	-0.245
VPSDSGRM	< -0.25
VPSTAQRRWRGTGSAPGS	< -0.25
VPSTNVMVNV	< -0.25
VPTHERYPTSGGGVAQNTTT	< -0.25
VPW	< -0.25
VQAECSGYRAQPVAV	< -0.25
VQAFATGSDARITRGCSQMD	< -0.25
VQAM	-0.181
VQDMVLGRFWMKQTSNPGRW	< -0.25
VQEGRLGQSQGGG	< -0.25
VQGAWSFRSFATILIVSQLP	< -0.25
VQGLYKFKLQSGQAAGVRGQ	< -0.25
VQGPGTRPCMAVSG	< -0.25
VQGSNCGHSVDKPLGPKTLP	< -0.25
VQI	< -0.25
VQIPQCCPEEEVDEVGF	< -0.25
VQKYTSRWDL	< -0.25
VQLAGEHSHVCCGG	< -0.25
VQLESSLRYWNLVHLTGVGT	< -0.25
VQLLADGRN	< -0.25

Substance	growth estimate
VQLSENLNLEIRTAGE	< -0.25
VQMLYGRNNYLCRN	< -0.25
VQNSRGGIAVNHMEFRKKAR	< -0.25
VQNVMCEKPRLAPTKLVDSG	< -0.25
VQQAWSYRARLRPKRMSLTG	< -0.25
VQRGIRAYLIYQNGERPGEW	< -0.25
VQSCGLRILHLLTIVRVLWV	< -0.25
VQSDVCFLAAWIAKEV	< -0.25
VQVC	< -0.25
VQYLGLRVDDVEL	< -0.25
VQYSQNLFHVDMVCVLGPHI	< -0.25
VRCG	< -0.25
VRCGALDCGFRR	< -0.25
VRCVNLCLGFFVESTRTPFH	< -0.25
VRCVVWVIRVRWLIHQFLYS	< -0.25
VRD	< -0.25
VRDGLSVLPR	< -0.25
VRDHWIRSF	< -0.25
VRDLFDLCGE	< -0.25
VRDRSVAE	< -0.25
VRDWVLGFKAQGLADMVRYV	< -0.25
VREFSHYICFKRPPRLWLSH	< -0.25
VREGPAKESSYRLVEVVRVN	< -0.25
VRENA	-0.246
VRESSGSRTYAYVTSLAINV	< -0.25

Substance	growth estimate
VRFEGVSRFLVRARVIRQCK	< -0.25
VRGAPFCA	< -0.25
VRGEWNGVEG	< -0.25
VRGGGLLSPSVVTWSLGTST	-0.204
VRGHHVGDRRKTYV	< -0.25
VRGLSC	< -0.25
VRGNPQTLAS	< -0.25
VRGRINGLDQILKETTADPN	< -0.25
VRGVSSCQVEESARAGVT	< -0.25
VRGYALGLKSIEIVARIVSP	< -0.25
VRHDIS	< -0.25
VRHEIKAHSGGSATPLLEQV	< -0.25
VRHRLCAGS	< -0.25
VRIERQRT	< -0.25
VRIGYRGNQ	< -0.25
VRIRVDEAYLLCREYRR	< -0.25
VRK	< -0.25
VRKAGSGLHFASEQTNMIVT	< -0.25
VRLAYGYNFWPTKAVVFYSN	< -0.25
VRLFIWPRRDLVSRRWTTPI	< -0.25
VRLGLGRSSRLRSSWPCASR	< -0.25
VRLPNQFYGLTASDIGRFRR	< -0.25
VRLSTRSYRES	< -0.25
VRMSRHSTGRRKGGELPARI	< -0.25
